Experimental data as given in article PMC10185471.
These are yes or no findings as the source states them, for the method shown. Binding seen in cells or lysates may run through a third protein. Here binding means that the protein was enriched with, or labelled near, the bait; the list need not be complete. Sequences can lack the tags named with a protein.

Amino acid sequences for entries named in this document (tags omitted). Residues count along the entry.
UniProt Q9Z2G6, residues 22-790: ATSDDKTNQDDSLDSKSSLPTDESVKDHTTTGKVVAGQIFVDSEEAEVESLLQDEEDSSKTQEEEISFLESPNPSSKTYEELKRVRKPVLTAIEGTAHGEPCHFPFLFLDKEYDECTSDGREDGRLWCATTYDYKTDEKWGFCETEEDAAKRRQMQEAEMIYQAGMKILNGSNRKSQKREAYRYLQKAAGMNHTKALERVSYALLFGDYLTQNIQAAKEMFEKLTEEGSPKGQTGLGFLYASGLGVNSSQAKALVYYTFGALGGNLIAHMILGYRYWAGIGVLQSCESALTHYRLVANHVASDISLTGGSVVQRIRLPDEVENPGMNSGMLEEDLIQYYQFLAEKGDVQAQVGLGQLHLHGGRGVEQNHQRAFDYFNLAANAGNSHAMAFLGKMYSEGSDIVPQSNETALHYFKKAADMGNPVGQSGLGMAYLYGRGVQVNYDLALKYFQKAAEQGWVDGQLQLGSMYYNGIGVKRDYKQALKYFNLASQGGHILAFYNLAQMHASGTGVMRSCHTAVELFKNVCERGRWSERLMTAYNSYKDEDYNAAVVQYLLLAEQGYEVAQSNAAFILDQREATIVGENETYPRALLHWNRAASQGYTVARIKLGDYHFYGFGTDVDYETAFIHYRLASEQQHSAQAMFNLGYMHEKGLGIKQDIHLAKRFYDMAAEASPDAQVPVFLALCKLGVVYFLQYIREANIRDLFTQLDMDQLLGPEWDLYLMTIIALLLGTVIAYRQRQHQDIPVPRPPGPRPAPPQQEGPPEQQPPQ

Target: T1, STING-TurboID-V5 (UniProt Q3TBT3)
T1 sequence: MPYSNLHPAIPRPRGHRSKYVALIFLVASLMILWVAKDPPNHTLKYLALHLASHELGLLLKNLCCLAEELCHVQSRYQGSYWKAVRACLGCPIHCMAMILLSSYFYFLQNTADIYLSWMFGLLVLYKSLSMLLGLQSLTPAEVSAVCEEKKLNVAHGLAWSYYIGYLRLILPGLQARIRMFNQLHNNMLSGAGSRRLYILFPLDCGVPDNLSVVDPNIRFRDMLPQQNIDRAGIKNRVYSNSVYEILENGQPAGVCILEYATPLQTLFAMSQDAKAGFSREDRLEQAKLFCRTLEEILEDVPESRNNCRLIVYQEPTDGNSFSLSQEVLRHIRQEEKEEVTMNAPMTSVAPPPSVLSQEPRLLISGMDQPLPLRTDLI
Experiment: proximity labelling; RAW 264.7 cells transfected with STING-TurboID-V5 (in the presence of H151), cGAMP for the indicated times, 50 µM biotin 10 min at 37 °C; streptavidin agarose, immunoblot

binding: binds
Substance: SEL1L (suppressor of lin-12-like), endogenous, mouse (from UniProt Q9Z2G6 22-790)
